Experimental data taken from PMC7738167.
No constants are given. Whether binding was seen depends on the method and setting. In cells and extracts the contact can be indirect. Some results given as binding are weak or reduced against the parent protein; the word gives no strength. For part of these data: Where a sequence is shown, tags or fusion partners need not be part of it.

The chains behind the UniProt entries cited, without tags or fusion partners.
UniProt P17769: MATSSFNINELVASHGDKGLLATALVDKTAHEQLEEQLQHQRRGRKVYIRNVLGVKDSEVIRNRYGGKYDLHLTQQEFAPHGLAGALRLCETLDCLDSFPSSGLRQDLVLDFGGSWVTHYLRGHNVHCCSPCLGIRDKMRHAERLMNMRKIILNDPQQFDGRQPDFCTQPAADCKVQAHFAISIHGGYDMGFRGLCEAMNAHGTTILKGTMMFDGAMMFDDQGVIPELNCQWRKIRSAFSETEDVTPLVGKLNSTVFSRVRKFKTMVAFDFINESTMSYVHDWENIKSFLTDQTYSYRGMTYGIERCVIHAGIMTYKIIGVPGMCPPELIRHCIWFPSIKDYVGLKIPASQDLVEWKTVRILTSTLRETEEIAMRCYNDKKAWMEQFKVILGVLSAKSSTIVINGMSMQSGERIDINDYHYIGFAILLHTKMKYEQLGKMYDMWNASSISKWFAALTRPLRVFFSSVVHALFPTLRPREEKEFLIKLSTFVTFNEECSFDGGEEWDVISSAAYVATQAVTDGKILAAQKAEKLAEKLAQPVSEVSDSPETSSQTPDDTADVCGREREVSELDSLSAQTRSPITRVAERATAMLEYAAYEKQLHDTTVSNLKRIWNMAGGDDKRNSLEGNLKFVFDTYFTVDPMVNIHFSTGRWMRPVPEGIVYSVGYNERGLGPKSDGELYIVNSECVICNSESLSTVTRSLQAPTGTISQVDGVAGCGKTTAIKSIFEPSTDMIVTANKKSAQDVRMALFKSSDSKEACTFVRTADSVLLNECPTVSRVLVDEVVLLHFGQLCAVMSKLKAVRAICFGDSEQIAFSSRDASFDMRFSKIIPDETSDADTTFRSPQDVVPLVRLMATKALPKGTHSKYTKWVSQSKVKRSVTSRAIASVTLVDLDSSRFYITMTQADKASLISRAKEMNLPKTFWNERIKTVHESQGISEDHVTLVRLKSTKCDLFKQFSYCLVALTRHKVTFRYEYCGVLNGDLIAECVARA

T1: Arabidopsis ARGONAUTE 1 fused to a split YFP half (Arabidopsis thaliana) (UniProt O04379)
T1 sequence: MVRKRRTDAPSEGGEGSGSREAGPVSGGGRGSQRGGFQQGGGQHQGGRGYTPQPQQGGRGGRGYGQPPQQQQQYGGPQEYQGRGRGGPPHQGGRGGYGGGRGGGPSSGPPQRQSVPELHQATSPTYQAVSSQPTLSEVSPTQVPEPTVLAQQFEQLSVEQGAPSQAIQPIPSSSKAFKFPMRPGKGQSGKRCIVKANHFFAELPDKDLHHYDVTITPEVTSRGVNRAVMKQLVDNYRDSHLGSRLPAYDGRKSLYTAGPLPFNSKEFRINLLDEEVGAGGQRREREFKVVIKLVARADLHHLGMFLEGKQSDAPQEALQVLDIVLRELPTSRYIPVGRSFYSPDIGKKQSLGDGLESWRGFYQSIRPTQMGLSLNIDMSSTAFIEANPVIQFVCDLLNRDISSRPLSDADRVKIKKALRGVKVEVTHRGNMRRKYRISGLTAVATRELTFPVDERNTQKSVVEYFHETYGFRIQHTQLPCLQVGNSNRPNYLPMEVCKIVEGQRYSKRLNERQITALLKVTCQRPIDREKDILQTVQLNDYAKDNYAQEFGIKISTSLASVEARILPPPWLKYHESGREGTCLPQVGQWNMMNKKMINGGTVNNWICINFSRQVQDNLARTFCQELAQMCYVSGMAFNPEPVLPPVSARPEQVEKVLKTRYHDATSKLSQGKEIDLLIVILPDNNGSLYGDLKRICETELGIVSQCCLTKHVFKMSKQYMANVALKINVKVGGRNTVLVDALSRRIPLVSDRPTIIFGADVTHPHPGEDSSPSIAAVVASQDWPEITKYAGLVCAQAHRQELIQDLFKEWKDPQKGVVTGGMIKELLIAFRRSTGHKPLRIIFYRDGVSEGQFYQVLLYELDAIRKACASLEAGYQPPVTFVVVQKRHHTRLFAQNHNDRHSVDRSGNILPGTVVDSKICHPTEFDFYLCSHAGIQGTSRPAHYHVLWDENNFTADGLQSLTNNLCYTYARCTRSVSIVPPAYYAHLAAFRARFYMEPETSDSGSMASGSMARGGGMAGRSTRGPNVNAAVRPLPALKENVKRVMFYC


Legend:
[1] = target: T1, Arabidopsis ARGONAUTE 1 fused to a split YFP half (Arabidopsis thaliana); test: split reporter; sYFPn and sYFPc fusions co-agroinfiltrated into N. benthamiana leaves, YFP fluorescence by confocal laser scanning microscopy
[2] = target: cucumber mosaic virus (Fny strain) 1a protein fused to a split YFP half (cucumber mosaic virus, strain Fny) (UniProt P17769); test: as above
[3] = target: cucumber mosaic virus (Fny strain) 1a protein with N-terminal red fluorescent protein (cucumber mosaic virus, strain Fny) (UniProt P17769); test: co-IP; extracts of agroinfiltrated N. benthamiana leaves, RFP-Trap beads, immunoblot with anti-GFP and anti-RFP

| Molecule | binding [1] | binding [2] | binding [3] |
| --- | --- | --- | --- |
| cucumber mosaic virus (Fny strain) 1a protein fused to a split YFP half (from UniProt P17769 1-993) | no binding | binds |  |
| Arabidopsis ARGONAUTE 1 fused to green fluorescent protein (protein, UniProt O04379 1-1048) MVRKRRTDAPSEGGEGSGSREAGPVSGGGRGSQRGGFQQGGGQHQGGRGYTPQPQQGGRGGRGYGQPPQQQQQYGGPQEYQGRGRGGPPHQGGRGGYGGGRGGGPSSGPPQRQSVPELHQATSPTYQAVSSQPTLSEVSPTQVPEPTVLAQQFEQLSVEQGAPSQAIQPIPSSSKAFKFPMRPGKGQSGKRCIVKANHFFAELPDKDLHHYDVTITPEVTSRGVNRAVMKQLVDNYRDSHLGSRLPAYDGRKSLYTAGPLPFNSKEFRINLLDEEVGAGGQRREREFKVVIKLVARADLHHLGMFLEGKQSDAPQEALQVLDIVLRELPTSRYIPVGRSFYSPDIGKKQSLGDGLESWRGFYQSIRPTQMGLSLNIDMSSTAFIEANPVIQFVCDLLNRDISSRPLSDADRVKIKKALRGVKVEVTHRGNMRRKYRISGLTAVATRELTFPVDERNTQKSVVEYFHETYGFRIQHTQLPCLQVGNSNRPNYLPMEVCKIVEGQRYSKRLNERQITALLKVTCQRPIDREKDILQTVQLNDYAKDNYAQEFGIKISTSLASVEARILPPPWLKYHESGREGTCLPQVGQWNMMNKKMINGGTVNNWICINFSRQVQDNLARTFCQELAQMCYVSGMAFNPEPVLPPVSARPEQVEKVLKTRYHDATSKLSQGKEIDLLIVILPDNNGSLYGDLKRICETELGIVSQCCLTKHVFKMSKQYMANVALKINVKVGGRNTVLVDALSRRIPLVSDRPTIIFGADVTHPHPGEDSSPSIAAVVASQDWPEITKYAGLVCAQAHRQELIQDLFKEWKDPQKGVVTGGMIKELLIAFRRSTGHKPLRIIFYRDGVSEGQFYQVLLYELDAIRKACASLEAGYQPPVTFVVVQKRHHTRLFAQNHNDRHSVDRSGNILPGTVVDSKICHPTEFDFYLCSHAGIQGTSRPAHYHVLWDENNFTADGLQSLTNNLCYTYARCTRSVSIVPPAYYAHLAAFRARFYMEPETSDSGSMASGSMARGGGMAGRSTRGPNVNAAVRPLPALKENVKRVMFYC |  |  | no binding |
